In US20120264685A1 (priority 2009, published 2012):

Experiment: general procedure: Fmoc solid-phase peptide synthesis; Fmoc-PAL-PEG-PS; DIPCDI/HOBt or DIPCDI/HOAt; HBTU, PyBOP or TBTU for difficult couplings; TBTU/DI
Details: whole synthesis
[1] = analytical RP-HPLC, Shimadzu LC-10AD, Luna 5u C18, PDA detector at 220 nm

Which results are given for “VH-Aib-QGTFT-(αMe-Ser)-D-(αMe-Bip(OMe))-(αMe-APPA)”?
crude yield: 55%; isolated yield: 49%; crude HPLC purity [1]: 60%; final HPLC purity [1]: 96%
